Experimental data from article PMC12606344.
These are yes or no findings as the source states them, for the method shown. Binding seen in cells or lysates may run through a third protein. Here binding means that the protein was enriched with, or labelled near, the bait; the list need not be complete.

Sequences of proteins named here, by UniProt entry; tags and fusion partners are left off.
UniProt Q92466: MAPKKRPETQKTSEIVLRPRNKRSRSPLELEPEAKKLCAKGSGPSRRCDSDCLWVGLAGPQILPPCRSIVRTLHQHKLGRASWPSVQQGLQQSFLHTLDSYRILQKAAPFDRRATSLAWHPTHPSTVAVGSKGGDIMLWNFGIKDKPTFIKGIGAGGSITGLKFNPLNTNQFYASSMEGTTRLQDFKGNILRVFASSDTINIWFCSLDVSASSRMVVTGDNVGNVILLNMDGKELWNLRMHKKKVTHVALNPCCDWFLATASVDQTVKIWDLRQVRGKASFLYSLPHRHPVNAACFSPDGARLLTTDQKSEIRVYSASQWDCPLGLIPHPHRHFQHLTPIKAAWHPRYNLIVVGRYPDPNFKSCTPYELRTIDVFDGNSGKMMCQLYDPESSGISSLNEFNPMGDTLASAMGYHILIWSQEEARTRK
UniProt Q13619: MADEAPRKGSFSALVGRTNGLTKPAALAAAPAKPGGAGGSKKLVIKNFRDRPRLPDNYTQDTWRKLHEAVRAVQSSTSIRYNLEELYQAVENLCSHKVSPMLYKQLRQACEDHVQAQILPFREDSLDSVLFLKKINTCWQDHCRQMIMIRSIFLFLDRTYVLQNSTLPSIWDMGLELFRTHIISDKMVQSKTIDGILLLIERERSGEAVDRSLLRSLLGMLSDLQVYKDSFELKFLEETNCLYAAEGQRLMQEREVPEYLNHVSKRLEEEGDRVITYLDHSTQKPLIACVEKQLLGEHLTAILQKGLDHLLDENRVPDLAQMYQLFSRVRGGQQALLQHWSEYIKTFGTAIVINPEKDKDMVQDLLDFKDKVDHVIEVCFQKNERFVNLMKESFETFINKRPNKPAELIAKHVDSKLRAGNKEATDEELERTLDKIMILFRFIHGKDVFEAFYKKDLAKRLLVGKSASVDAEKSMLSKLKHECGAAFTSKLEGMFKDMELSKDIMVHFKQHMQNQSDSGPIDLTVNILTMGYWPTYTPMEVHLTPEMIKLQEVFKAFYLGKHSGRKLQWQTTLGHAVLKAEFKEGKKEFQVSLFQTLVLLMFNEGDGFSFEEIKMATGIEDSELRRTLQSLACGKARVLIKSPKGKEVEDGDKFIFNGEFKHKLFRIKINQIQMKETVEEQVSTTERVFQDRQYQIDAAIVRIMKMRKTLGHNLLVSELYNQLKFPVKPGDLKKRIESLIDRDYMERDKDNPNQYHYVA
UniProt Q13620: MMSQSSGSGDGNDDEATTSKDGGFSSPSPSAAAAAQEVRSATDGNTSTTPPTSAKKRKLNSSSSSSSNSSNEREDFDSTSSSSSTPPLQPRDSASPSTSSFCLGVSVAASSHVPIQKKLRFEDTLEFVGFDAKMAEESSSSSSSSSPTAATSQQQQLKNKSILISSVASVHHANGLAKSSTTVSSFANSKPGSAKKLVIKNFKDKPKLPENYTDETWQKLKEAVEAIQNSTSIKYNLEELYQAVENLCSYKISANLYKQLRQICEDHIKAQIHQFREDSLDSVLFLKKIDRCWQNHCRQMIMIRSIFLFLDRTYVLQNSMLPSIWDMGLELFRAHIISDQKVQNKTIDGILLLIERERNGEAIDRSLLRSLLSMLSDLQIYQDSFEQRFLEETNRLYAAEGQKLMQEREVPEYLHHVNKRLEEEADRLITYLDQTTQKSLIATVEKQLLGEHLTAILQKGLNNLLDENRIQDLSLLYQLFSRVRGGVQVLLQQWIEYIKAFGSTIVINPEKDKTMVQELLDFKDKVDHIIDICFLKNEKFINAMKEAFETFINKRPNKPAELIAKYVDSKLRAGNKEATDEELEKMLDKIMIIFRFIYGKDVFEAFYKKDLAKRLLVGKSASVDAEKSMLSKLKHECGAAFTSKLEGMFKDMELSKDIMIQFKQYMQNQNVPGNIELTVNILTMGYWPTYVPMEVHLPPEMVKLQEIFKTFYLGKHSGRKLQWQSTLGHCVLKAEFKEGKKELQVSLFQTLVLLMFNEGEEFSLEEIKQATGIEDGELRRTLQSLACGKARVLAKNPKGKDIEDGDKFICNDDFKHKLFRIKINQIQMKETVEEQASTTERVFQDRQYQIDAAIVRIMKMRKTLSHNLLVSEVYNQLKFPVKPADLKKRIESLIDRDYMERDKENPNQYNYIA
UniProt Q16531: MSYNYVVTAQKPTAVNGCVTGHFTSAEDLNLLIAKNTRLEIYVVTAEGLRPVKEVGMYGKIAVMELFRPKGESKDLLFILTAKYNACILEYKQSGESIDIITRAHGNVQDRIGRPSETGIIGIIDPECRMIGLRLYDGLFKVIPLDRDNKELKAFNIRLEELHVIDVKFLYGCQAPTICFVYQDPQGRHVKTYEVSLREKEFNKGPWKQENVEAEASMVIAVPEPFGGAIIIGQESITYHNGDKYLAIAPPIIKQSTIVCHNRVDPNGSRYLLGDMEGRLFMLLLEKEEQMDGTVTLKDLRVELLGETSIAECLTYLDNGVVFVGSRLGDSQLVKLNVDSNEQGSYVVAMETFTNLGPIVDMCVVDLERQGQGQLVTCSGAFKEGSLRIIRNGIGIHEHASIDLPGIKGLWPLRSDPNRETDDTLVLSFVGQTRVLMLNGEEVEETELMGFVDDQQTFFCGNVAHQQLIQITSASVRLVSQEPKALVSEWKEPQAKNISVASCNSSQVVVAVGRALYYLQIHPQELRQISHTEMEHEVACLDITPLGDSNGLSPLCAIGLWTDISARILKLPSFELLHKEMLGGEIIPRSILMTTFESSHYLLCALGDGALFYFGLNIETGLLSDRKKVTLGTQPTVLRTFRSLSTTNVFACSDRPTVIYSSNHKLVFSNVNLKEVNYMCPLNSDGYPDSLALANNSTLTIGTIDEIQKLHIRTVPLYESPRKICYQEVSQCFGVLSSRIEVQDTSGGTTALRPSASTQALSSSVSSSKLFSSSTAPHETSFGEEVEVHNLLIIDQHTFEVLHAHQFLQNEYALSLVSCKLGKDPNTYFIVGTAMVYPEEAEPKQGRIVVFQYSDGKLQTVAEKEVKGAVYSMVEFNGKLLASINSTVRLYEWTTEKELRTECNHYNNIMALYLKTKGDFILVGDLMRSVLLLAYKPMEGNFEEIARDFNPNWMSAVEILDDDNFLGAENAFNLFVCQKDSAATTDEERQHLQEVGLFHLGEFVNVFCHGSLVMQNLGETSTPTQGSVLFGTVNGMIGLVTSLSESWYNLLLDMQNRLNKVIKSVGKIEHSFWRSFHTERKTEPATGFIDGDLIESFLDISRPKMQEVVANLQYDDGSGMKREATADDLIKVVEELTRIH

Biological target: FLAG-tagged DDB2 (HEK293F expressing FLAG-DDB2) (human) (UniProt Q92466)
Assay: affinity purification with mass spectrometry; anti-FLAG eluate of chromatin from HEK293F cells expressing FLAG-DDB2; same chromatin isolation without crosslinking (as the results say); CBB-stained gel, in-gel and shotgun trypsin digestion, nano LC-MS/MS

Row | binding | Substance
1 | binds | CUL4A (endogenous, HEK293F) (from UniProt Q13619 1-759) (other; other documents disagree on this pair)
2 | binds | CUL4B (endogenous, HEK293F) (from UniProt Q13620 1-913)
3 | binds | DDB1 (endogenous, HEK293F) (from UniProt Q16531 1-1140)
